Data as given in the supplement of paper PMC10849652.
The other results are listed elsewhere or left out.

Chains of the proteins cited; added tags and fusions are not shown. Lines headed by an entry give the natural chain unless they say otherwise; changes in a name come on top.
UniProt P23786: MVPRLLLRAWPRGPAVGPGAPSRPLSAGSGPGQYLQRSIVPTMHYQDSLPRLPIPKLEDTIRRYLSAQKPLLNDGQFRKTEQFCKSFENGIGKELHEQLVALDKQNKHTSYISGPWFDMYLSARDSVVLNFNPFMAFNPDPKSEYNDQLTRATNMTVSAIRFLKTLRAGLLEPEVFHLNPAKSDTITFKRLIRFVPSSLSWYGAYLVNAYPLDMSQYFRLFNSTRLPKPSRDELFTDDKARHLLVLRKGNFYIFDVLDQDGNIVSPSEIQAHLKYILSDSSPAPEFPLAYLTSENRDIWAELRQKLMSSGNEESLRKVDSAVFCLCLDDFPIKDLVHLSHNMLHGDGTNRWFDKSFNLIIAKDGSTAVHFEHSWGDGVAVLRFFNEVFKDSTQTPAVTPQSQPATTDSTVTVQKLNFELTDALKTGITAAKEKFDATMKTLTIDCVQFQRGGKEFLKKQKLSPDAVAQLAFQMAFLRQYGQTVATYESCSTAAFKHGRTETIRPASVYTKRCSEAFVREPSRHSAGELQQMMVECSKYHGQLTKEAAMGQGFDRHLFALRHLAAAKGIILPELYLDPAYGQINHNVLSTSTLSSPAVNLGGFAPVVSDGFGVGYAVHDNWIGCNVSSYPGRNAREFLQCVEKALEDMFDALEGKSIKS
UniProt Q9NQ92: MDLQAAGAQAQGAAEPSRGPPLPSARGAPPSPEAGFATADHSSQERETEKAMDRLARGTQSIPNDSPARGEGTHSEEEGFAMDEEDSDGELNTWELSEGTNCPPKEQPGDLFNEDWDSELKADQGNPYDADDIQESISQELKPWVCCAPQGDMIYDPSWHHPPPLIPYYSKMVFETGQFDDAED
UniProt Q16630, whole entry, looked up: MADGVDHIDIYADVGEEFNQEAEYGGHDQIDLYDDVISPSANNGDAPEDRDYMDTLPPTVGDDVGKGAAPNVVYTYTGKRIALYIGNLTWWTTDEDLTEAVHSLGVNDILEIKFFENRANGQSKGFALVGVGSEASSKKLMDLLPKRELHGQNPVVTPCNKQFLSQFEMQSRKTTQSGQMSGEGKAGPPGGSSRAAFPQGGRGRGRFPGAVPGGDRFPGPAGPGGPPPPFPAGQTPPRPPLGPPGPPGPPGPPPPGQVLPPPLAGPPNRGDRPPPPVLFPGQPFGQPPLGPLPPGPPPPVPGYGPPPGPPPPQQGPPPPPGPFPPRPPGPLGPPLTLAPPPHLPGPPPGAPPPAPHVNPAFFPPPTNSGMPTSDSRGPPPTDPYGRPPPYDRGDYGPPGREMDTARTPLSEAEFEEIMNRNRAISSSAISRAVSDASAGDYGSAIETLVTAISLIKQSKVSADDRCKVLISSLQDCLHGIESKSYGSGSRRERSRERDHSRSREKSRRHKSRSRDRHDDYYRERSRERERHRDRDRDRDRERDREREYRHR
UniProt Q9Y2B0: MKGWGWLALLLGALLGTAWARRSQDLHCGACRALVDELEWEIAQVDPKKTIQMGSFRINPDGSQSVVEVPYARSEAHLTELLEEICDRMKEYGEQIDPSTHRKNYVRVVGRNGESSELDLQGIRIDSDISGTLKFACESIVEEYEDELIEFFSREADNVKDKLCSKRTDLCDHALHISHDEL
UniProt Q9UP83: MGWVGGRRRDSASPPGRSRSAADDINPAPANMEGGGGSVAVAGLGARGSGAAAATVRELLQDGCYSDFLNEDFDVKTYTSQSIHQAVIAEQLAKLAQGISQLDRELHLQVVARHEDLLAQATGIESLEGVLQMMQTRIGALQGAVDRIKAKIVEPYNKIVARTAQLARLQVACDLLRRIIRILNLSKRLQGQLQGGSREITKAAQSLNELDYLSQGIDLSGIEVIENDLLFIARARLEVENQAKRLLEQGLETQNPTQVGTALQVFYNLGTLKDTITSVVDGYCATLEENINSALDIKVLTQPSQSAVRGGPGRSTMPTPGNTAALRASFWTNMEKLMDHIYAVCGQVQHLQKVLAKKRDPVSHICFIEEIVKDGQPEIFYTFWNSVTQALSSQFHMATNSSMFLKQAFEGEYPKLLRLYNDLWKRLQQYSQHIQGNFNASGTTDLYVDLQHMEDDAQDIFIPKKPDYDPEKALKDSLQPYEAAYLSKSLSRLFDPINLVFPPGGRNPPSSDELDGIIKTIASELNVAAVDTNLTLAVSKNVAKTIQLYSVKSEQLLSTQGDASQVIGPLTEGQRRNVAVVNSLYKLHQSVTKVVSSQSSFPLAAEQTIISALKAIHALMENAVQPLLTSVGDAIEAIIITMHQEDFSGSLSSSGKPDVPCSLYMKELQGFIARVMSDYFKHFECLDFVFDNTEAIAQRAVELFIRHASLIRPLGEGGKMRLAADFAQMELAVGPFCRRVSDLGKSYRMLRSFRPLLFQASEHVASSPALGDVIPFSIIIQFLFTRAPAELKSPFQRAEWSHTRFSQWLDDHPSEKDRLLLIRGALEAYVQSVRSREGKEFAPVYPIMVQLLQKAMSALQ
UniProt Q9NYJ1, whole entry, looked up: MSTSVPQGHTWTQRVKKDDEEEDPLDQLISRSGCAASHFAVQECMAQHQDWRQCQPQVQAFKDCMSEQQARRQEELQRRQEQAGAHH
UniProt Q9BT09: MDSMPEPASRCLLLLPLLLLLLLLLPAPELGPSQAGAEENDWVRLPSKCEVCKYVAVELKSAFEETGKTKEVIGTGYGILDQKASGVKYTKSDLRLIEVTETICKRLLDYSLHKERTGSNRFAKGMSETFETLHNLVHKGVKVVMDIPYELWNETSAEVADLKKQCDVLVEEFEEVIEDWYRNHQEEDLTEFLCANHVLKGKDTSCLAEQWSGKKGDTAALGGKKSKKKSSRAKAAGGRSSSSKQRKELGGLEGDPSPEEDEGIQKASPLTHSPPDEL
UniProt Q8N668, whole entry, looked up: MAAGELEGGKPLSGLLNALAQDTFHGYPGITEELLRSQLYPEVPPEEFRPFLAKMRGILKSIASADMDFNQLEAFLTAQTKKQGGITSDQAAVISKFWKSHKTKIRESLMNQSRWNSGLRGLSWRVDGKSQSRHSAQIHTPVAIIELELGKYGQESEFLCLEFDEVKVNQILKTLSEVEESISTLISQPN

How the values were obtained:
Assay in all cases: log2 fold change, soluble protein after heating vs DMSO (PISA); higher = thermal stabilisation; K562 lysate, 10 uM; active = over 0.2 and 3.5 SD of the protein, either way, in both replicates (recomputed)
vemurafenib = compound: CCCS(=O)(=O)Nc1ccc(F)c(C(=O)c2c[nH]c3ncc(-c4ccc(Cl)cc4)cc23)c1F [vemurafenib]
Summary of the method: (§1)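 Pellets of K562 cells were dounce-homogenised in PBS pH 7.4 with 1 mM MgCl2, and the crude extract was held at 1 mg/mL protein for a 30 min treatment with 10 μM compound. Aliquots were heated for 3 min over 48°C-58°C and pooled before NP-40 was added to 0.5% at 4°C. The supernatant from 21,000xg for 90 min was quantified by TMTpro 16plex LC-MS/MS with channel sums equalised. Values are reported from duplicates as log-two fold change in thermal stability relative to solvent controls.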

[1] = compound: CCCS(=O)(=O)Nc1ccc(F)c(C(=O)c2c[nH]c3ncc(Cl)cc23)c1F
Summary of the method: as §1

barasertib = compound: CCN(CCCOc1ccc2c(Nc3cc(CC(=O)Nc4cccc(F)c4)[nH]n3)ncnc2c1)CCOP(=O)(O)O [barasertib]
Summary of the method: as §1

[2] = compound: CC[C@@H]1C(=O)N(C)c2cnc(Nc3ccc(C(=O)NC4CCN(C)CC4)cc3OC)nc2N1C1CCCC1
Summary of the method: as §1

volasertib = compound: CC[C@@H]1C(=O)N(C)c2cnc(Nc3ccc(C(=O)N[C@H]4CC[C@H](N5CCN(CC6CC6)CC5)CC4)cc3OC)nc2N1C(C)C [volasertib]
Summary of the method: as §1

[3] = compound: CCn1c(C(=O)N(C2CC2)C2CC2)cc2c3c(ncn3C)c(Nc3cc(C)n(C)n3)nc21
Summary of the method: as §1

[4] = compound: CCn1cc(-c2ccnc3[nH]c(-c4cccc(CN(C)C)c4)cc23)c(-c2ccc(NC(=O)N(C)C)cc2)n1
Summary of the method: as §1

[5] = compound: CN1CCC(CNc2ccc3ncc(-c4cccc(OC(F)(F)F)c4)n3n2)CC1
Summary of the method: as §1

saracatinib = compound: CN1CCN(CCOc2cc(OC3CCOCC3)c3c(Nc4c(Cl)ccc5c4OCO5)ncnc3c2)CC1 [saracatinib]
Summary of the method: as §1

sotrastaurin = compound: CN1CCN(c2nc(C3=C(c4c[nH]c5ccccc45)C(=O)NC3=O)c3ccccc3n2)CC1 [sotrastaurin]
Summary of the method: as §1

alvocidib = compound: CN1CC[C@H](c2c(O)cc(O)c3c(=O)cc(-c4ccccc4Cl)oc23)[C@H](O)C1 [alvocidib]
Summary of the method: as §1

Tubastatin A = compound: CN1CCc2c(c3ccccc3n2Cc2ccc(C(=O)NO)cc2)C1 [Tubastatin A]
Summary of the method: as §1

[6] = compound: CNC(=O)C1=CC=CC=C1NC2=NC(=NC=C2Cl)NC3=C(C=C(C=C3)N4CCOCC4)OC
Summary of the method: as §1

defactinib = compound: CNC(=O)c1ccc(Nc2ncc(C(F)(F)F)c(NCc3nccnc3N(C)S(C)(=O)=O)n2)cc1 [defactinib]
Summary of the method: as §1

[7] = compound: CNc1nc(-c2ccc3c(N)n[nH]c3c2)cc(N2C[C@@H](C(=O)NC3CCCCC3)CC[C@H]2C)n1
Summary of the method: as §1

encorafenib = compound: COC(=O)N[C@@H](C)CNc1nccc(-c2cn(C(C)C)nc2-c2cc(Cl)cc(NS(C)(=O)=O)c2F)n1 [encorafenib]
Summary of the method: as §1

[8] = compound: COC(=O)[C@H](CCSC)NC(=O)C1=C(C=C(C=C1)NC[C@H](CS)N)C2=CC=CC=C2
Summary of the method: as §1

alisertib = compound: COc1cc(Nc2ncc3c(n2)-c2ccc(Cl)cc2C(c2c(F)cccc2OC)=NC3)ccc1C(=O)O [alisertib]
Summary of the method: as §1

[9] = compound: COc1cc2nc(-c3cc(F)ccc3O)nc(N[C@@H]3CNC[C@H]3C(C)(C)O)c2cc1OC
Summary of the method: as §1

gefitinib = compound: COc1cc2ncnc(Nc3ccc(F)c(Cl)c3)c2cc1OCCCN1CCOCC1 [gefitinib]
Summary of the method: as §1

Measured: log2 fold change

CPT2 (UniProt P23786)
inactive: vemurafenib 0.12 | [1] 0.014 | barasertib 0.027 | [2] -0.024 | volasertib 0.207 | [3] 0 | [4] 0.12 | [5] -0.037 | saracatinib -0.082 | sotrastaurin 0.024 | alvocidib -0.015 | Tubastatin A 0.025 | [6] 0 | defactinib -0.005 | [7] 0.167 | encorafenib -0.017 | [8] 0.192 | alisertib 0.074 | [9] 0.003 | gefitinib -0.035

COPRS (UniProt Q9NQ92)
inactive: vemurafenib -0.005 | [1] -0.007 | barasertib 0.1 | [2] 0.037 | volasertib 0.048 | [3] -0.149 | [4] -0.333 | [5] 0.167 | saracatinib 0.026 | sotrastaurin 0.018 | alvocidib -0.119 | Tubastatin A 0.084 | [6] -0.036 | defactinib 0.014 | [7] 0.006 | encorafenib 0.054 | [8] 0.06 | alisertib -0.048 | [9] 0.036 | gefitinib -0.106

CPSF6 isoform 2 (UniProt Q16630)
inactive: vemurafenib -0.019 | [1] 0.001 | barasertib -0.011 | [2] -0.034 | volasertib -0.015 | [3] 0.014 | [4] 0.049 | [5] -0.002 | saracatinib -0.004 | sotrastaurin -0.014 | alvocidib -0.071 | Tubastatin A 0.026 | [6] -0.024 | defactinib -0.015 | [7] -0.001 | encorafenib 0.032 | [8] -0.015 | alisertib -0.009 | [9] 0.001 | gefitinib 0.009

CNPY2 (UniProt Q9Y2B0)
inactive: vemurafenib -0.014 | [1] -0.001 | barasertib 0.02 | [2] -0.035 | volasertib 0.004 | [3] 0.037 | [4] 0.181 | [5] 0.021 | saracatinib 0.006 | sotrastaurin 0.04 | alvocidib -0.002 | Tubastatin A 0.026 | [6] 0.01 | defactinib 0.007 | [7] -0.04 | encorafenib -0.014 | [8] -0.057 | alisertib 0.01 | [9] 0.012 | gefitinib 0.056

COG5 isoform 2 (UniProt Q9UP83)
inactive: vemurafenib 0.001 | [1] 0.06 | barasertib -0.116 | [2] -0.056 | volasertib -0.084 | [3] -0.007 | [4] -0.02 | [5] 0.01 | saracatinib 0.057 | sotrastaurin 0.08 | alvocidib 0.02 | Tubastatin A -0.051 | [6] 0.04 | defactinib -0.005 | [7] -0.015 | encorafenib -0.025 | [8] -0.037 | alisertib -0.012 | [9] -0.053 | gefitinib 0.027

COA4 isoform 2 (UniProt Q9NYJ1)
inactive: vemurafenib -0.061 | [1] -0.017 | barasertib 0.175 | [2] 0.1 | volasertib 0.105 | [3] 0 | [4] 0.037 | [5] -0.278 | saracatinib 0.021 | sotrastaurin 0.082 | alvocidib 0.15 | Tubastatin A 0.12 | [6] 0.075 | defactinib 0.121 | [7] -0.037 | encorafenib -0.055 | [8] -0.012 | alisertib 0.088 | [9] -0.045 | gefitinib -0.155

CNPY3 (UniProt Q9BT09)
inactive: vemurafenib -0.001 | [1] -0.006 | barasertib -0.006 | [2] 0.04 | volasertib 0.022 | [3] 0.025 | [4] 0.035 | [5] -0.061 | saracatinib -0.023 | sotrastaurin 0.032 | alvocidib 0.01 | Tubastatin A 0.015 | [6] 0.009 | defactinib -0.061 | [7] 0.029 | encorafenib -0.031 | [8] -0.074 | alisertib -0.016 | [9] 0.002 | gefitinib 0.178

COMMD1 (UniProt Q8N668)
inactive: vemurafenib 0.021 | [1] 0.048 | barasertib -0.01 | [2] -0.014 | volasertib 0.007 | [3] 0.071 | [4] -0.027 | [5] 0.033 | saracatinib 0.063 | sotrastaurin 0.025 | alvocidib -0.041 | Tubastatin A 0.002 | [6] 0.006 | defactinib -0.038 | [7] -0.027 | encorafenib 0.001 | [8] -0.05 | alisertib 0.009 | [9] 0.04 | gefitinib -0.007
